Results as given in patent US11266670B2, “Use of scutellarin in a medicament and a modulator for preventing or treating diseases, medicament, and modulator” (University of Macau, priority 2019, dated 2022).
For at least one compound, name, drawing or mass did not settle the structure.

Assays:
[1] = system: cardiac fibroblast; settings: long-term administration; cited from earlier work
[2] = system: 4T1 cells; assay: Inhibitory effect on 4T1 cells in vitro (MTT); format: cell-based, mouse; settings: scutellarin 100 μM, 24 h, vs medium group
[3] = system: 4T1 tumor; assay: Mouse 4T1 tumor model, tumor growth; format: in vivo, BALB/c mice; settings: scutellarin 50 mg/kg/day intraperitoneally, day 20 after tumor inoculation
[4] = system: WEHI-13VAR cells; assay: TNF bioassay: TNF-induced death of WEHI-13VAR cells in the presence of AcD (MTT); format: cell-based
Method: WEHI-13VAR is a fibrosarcoma cell line that is extremely sensitive to TNF-induced cell death in the presence of AcD (0.5 μg/ml) and is commonly used in TNF bioassays. In TNF bioassays, the presence of AcD is a standard approach designed to increase the sensitivity of cells to TNF. TNF acts by binding to its two functionally distinct receptors, TNFR1 and TNFR2. To identify which TNF receptor was expressed on WEHI-13VAR cells, we measured the expression of TNFR1 and TNFR2 on WEHI-13VAR by FACS. […] In the case of labeling with PE anti-mouse TNFR2 antibody, the expression of TNFR2 was higher than in the case of labeling with the isotype control by 50%. […] Furthermore, in order to investigate which TNF receptor is responsible for TNF-induced cell death, we stimulated the cells with TNF, and co-cultured the cells with anti-TNFR1 antibody or anti-TNFR2 antibody for 24 hours. Cell viability was measured by MTT. […]
CHIs are injections developed in China and approved by the China Food and Drug Administration. […] We screened eleven CHIs and assessed their effects on WEHI-13VAR cells by TNF bioassay. […]
WEHI-13VAR cells were seeded in 96-well plates at 1.5×10^4 cells/well. […] Absorbance values were read at 570 nm using a 1420 Multilabel counter victor (PerkinElmer, Waltham, Mass., USA). Cell viability was expressed as the ratio of absorbance values between the sample and the blank control group.

[5] = system: TNF; settings: scutellarin 50 mg/kg; cited from earlier work
[6] = system: Tregs; assay: TNF-induced up-regulation of Tregs and Foxp3/TNFR2 expression in cultured lymphocytes (FACS); format: cell-based; settings: IL-2+TNF, 72 hours
Method: FIG. 5. […] Lymphocytes were cultured in the presence of IL-2 (10 ng/mL) or IL-2+TNF (10 ng/mL each), with medium alone or with scutellarin (25-50 μM) for 72 hours. (A) Typical FACS analysis of Tregs is shown. The data as shown are representative of at least three separate experiments with similar results. The numbers in the FACS plots show the proportion of cells in the respective quadrants. (B) Summary of the proportion of CD4^+Foxp3^+ cells in CD4^+ cells. (C) Summary of MFI of Foxp3 expression on Tregs. (D) Typical FACS plots of the proportion of TNFR2^+ cells in Tregs. (E) Summary of the proportion of TNFR2^+ cells in CD4^+Foxp3^+Tregs. (F) Summary of MFI of TNFR2 expression on Tregs (by gating on Foxp3^+ cells) (N=3, mean±SEM). ** p<0.01, *** p<0.001, compared to the “TNF+IL-2” group. The data as shown are representative of at least three separate experiments with similar results.
We then explored the effect of scutellarin on the TNF-induced proliferation of Tregs in an in vitro experiment. Therefore, lymph nodes of C57BL/6J mice were harvested, and lymphocytes were cultured with IL-2 to maintain cell survival. Two different concentrations of scutellarin (25 or 50 μM) were administered to an administration group. In the presence of TNF, Tregs proliferated approximately 2-fold (FIG. 5A). […] Therefore, scutellarin can inhibit the proportion of TNFR2±Tregs and the expression of TNFR2 on Tregs treated with TNF.
Lymphocytes were obtained from spleens, axillary lymph nodes, inguinal lymph nodes and mesenteric lymph nodes of mice. CD4^+ T cells were purified from lymphocytes by using CD4 (L3T4) microbeads (Miltenyi Biotec, 130-097-145) and MS columns (Miltenyi Biotec). […] The proliferation of Tregs was assessed by CFSE dilution assay, and the proportion of Foxp3^+ cells in the CD4^+ subset and the proportion of TNFR2 expressed on Tregs were analyzed by FACS. […] The expression of Foxp3 and TNFR2 was analyzed by FACS. […]

[7] = system: Tregs; assay: LPS-induced in vivo expansion of Tregs in mice; design: species or system C57BL/6J mice; settings: scutellarin 50 mg/kg/day immediately after LPS, 24 hours

Structure (SMILES): O=C(O)[C@H]1O[C@@H](Oc2cc3oc(-c4ccc(O)cc4)cc(=O)c3c(O)c2O)[C@H](O)[C@@H](O)[C@@H]1O [scutellarin]
- cardiac fibroblast proliferation and collagen generation [1]: can inhibit cardiac fibroblast proliferation and collagen generation
- growth of 4T1 cells [2]: could significantly inhibit the growth of 4T1 cells
- tumor size [3]: could significantly inhibit the tumor size
- AcD-induced cell death of WEHI-13VAR cells ([4]; scutellarin 50 μM, AcD 0.5 μg/ml alone vs TNF plus AcD): did not inhibit AcD-induced cell death
- TNF-induced death of WEHI-13VAR cells ([4]; scutellarin 12.5-200 μM, TNF 25 pg/mL and AcD, 24 hours): significantly inhibited TNF-induced death of WEHI-13VAR cells
- LPS-induced TNF level [5]: can significantly down-regulate LPS-induced TNF level
- TNF-induced proliferation of Tregs (proportion of CD4+Foxp3+ cells) ([6]; scutellarin 50 μM): significantly inhibited TNF-induced proliferation of Tregs
- TNF-induced up-regulation of TNFR2+ Tregs and expression of TNFR2 ([6]; scutellarin 25 or 50 μM): dose-dependently inhibited TNF-induced up-regulation of TNFR2±Tregs and expression of TNFR2
- increase in Foxp3 expression MFI on each cell treated with TNF ([6]; scutellarin 25 or 50 μM): dose-dependently inhibited the increase in Foxp3 expression MFI
- LPS-induced proliferation of Tregs [7]: completely inhibited LPS-induced proliferation of Tregs
- LPS-induced up-regulation of TNFR2 expression on Tregs [7]: completely inhibited LPS-induced up-regulation of TNFR2 expression on Tregs
